# Assay results published in publication PMC5133449, “Peripheral self-reactivity regulates antigen-specific CD8 T-cell responses and cell division under physiological conditions” (Open Biology, 2016).
# System: Rop7-II TCR
# Assay: SPR affinity of H-2 L^d-peptide complexes for immobilised recombinant Rop7-II TCR (BIAcore 3000)
# Format: binding, mouse
# Details: for lower affinity of Rop7-II TCR than Rop7-I TCR: Rop7-II versus Rop7-I TCR, peptide in H-2 L^d
Sequence,lower affinity of Rop7-II TCR than Rop7-I TCR,"lower affinity of Rop7-II TCR than Rop7-III TCR (Rop7-II versus Rop7-III TCR, H-2 L^d-IPAAAGRFF) [fold]"
IPAAAGRFF [peptide … derived from the Rop7 protein of Toxoplasma gondii],25 fold,3
IPANAGRFF,approx. twofold,
